The list shows a part of the results. Further columns of the screen follow, without active or inactive calls. Compounds called inactive in the main read-out are mostly missing here. The note in brackets gives the kind of curve behind each potency; many fits are weak.
Test: qHTS Assay for Modulators of Lamin A Splicing
Conditions: HeLa LMNA splicing GFP/RFP minigene ratio, 48 h
Procedure, shortened: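 S3 HeLa cells stably expressing lamin A-EGFP splicing minigene plus DsRed2, 600 cells/well, 48 h compound exposure at 37C. Laser-scanning cytometry; analysed as GFP (500-530 nm)/RFP (575-640 nm) total intensity ratio; 0.5% DMSO vehicle.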

[1] = measured here: GFP splicing reporter channel
[2] = measured here: RFP viability control channel

SMILES | AC50 [1] | AC50 [2]
Cc1ccnc(NC(=O)CCCOc2cc(=O)n(C)c3ccccc23)c1 | 15.8 µM [falling, single point] | 11.2 µM [falling, partial curve]
CN(C)CCCN(Cc1ccccc1)C(=S)Nc1cccc(C(F)(F)F)c1 | – | 17.8 µM [rising, partial curve]
Cc1cc(S(=O)(=O)N2CCN(Cc3ccc4c(c3)OCO4)CC2)cc(C)c1N1CCCC1=O | 4.47 µM [rising, partial curve] | 10 µM [rising, partial curve]
COc1ccccc1N1CCN(C(=O)c2ccc(CS(=O)(=O)c3ccccc3OC)o2)CC1 | – | 15.8 µM [rising, single point]
COc1cccc(-c2nc(NC3CCNCC3)c3ccccc3n2)c1 | 10 µM [falling, partial curve] | 7.08 µM [falling, partial curve, poor fit]
O=C(c1cn(-c2ccccc2)nc1-c1cccc([N+](=O)[O-])c1)N1CCCCC1 | – | 3.55 µM [falling, partial curve]
CCOc1ccc(N(Cc2ccc(OC)c(OC)c2)C(=O)c2ccco2)cc1 | 17.8 µM [falling, partial curve, poor fit] | 0.0224 µM [falling, full curve, poor fit]
O=C(Cn1nc(-c2ccccc2)c2cnc3ccc(F)cc3c21)NC1CCCC1 | 6.31 µM [falling, partial curve, poor fit] | –
COC(=O)[C@@]1(Cc2ccc(OC)cc2)[C@H]2c3cc(C(=O)N(C)C)n(CCc4ccc(OC)c(Br)c4)c3C[C@H]2CN1C(=O)c1ccccc1 | 12.6 µM [rising, partial curve] | 17.8 µM [rising, partial curve]
Cn1c(-c2ccccc2)cc2c3no[n+]([O-])c3ccc21 | 3.98 µM [falling, full curve] | 2.51 µM [falling, full curve]
O=C(Nc1cc(C(=O)Nc2ccc(S(=O)(=O)O)cc2S(=O)(=O)O)cc(C(=O)Nc2ccc(S(=O)(=O)O)cc2S(=O)(=O)O)c1)Nc1cc(C(=O)Nc2ccc(S(=O)(=O)O)cc2S(=O)(=O)O)cc(C(=O)Nc2ccc(S(=O)(=O)O)cc2S(=O)(=O)O)c1 | 10 µM [falling, partial curve, poor fit] | –
O=C(COC(=O)CCC1CCCC1)Nc1ccccc1Sc1ccccc1 | 0.708 µM [rising, full curve, poor fit] | 0.631 µM [rising, single point]
COCCCNC(=O)CCc1ccccc1 | – | 4.47 µM [falling, full curve, poor fit]
COc1ccc(OC)c(C2NC(=O)NC(C)=C2C(=O)Nc2ccc(C)cc2)c1 (stereo not given) | – | 3.98 µM [falling, single point]
O=C(O)C1CCN(c2nc(-c3ccccc3)nc3c2oc2ccccc23)CC1 | – | 1 µM [rising, partial curve, poor fit]
Cc1cc(NC(=O)CSc2nc3c([nH]c4ccccc43)c(=O)n2-c2ccccc2F)no1 | 35.5 µM [falling, single point] | 35.5 µM [falling, single point]
COc1ccc(C(=O)OCC(=O)NC2CC2)cc1[N+](=O)[O-] | 0.00447 µM [falling, full curve, poor fit] | 0.01 µM [falling, full curve, poor fit]

Not a retest: an excerpt of the list.
SMILES | AC50 [1] | AC50 [2]
O=C(Nc1cc(C(=O)Nc2ccc(S(=O)(=O)O)cc2S(=O)(=O)O)cc(C(=O)Nc2ccc(S(=O)(=O)O)cc2S(=O)(=O)O)c1)Nc1cc(C(=O)Nc2ccc(S(=O)(=O)O)cc2S(=O)(=O)O)cc(C(=O)Nc2ccc(S(=O)(=O)O)cc2S(=O)(=O)O)c1 | 10 µM [falling, partial curve, poor fit] | –
O=C(COC(=O)CCC1CCCC1)Nc1ccccc1Sc1ccccc1 | 0.708 µM [rising, full curve, poor fit] | 0.631 µM [rising, single point]

Additional structures follow:

SMILES | AC50 [1] | AC50 [2]
CCCCCCc1cc2cc(C(=O)Nc3ccc(OC)cc3)c(=O)oc2cc1O | – | 4.47 µM [rising, full curve]
Cc1cc(N/N=C/c2ccccc2O)nc(-c2ccccc2O)n1 | 35.5 µM [falling, single point] | –
Cc1ccc(S(=O)(=O)N(C)CCCC(=O)Nc2cc(C)ccc2C)cc1 | – | 14.1 µM [rising, single point]
O=C(COc1ccc([N+](=O)[O-])cc1)N1CCC(c2nc3ccccc3s2)CC1 | 3.16 µM [falling, full curve, poor fit] | –
CCOc1ccc(NC(=S)NNc2ccnc3cc(Cl)ccc23)cc1 | 8.91 µM [falling, partial curve, poor fit] | –
COc1ccc(/C=N/Nc2nonc2N)cc1 | – | 20 µM [falling, single point]
COC(=O)Cn1c2ccc(F)cc2c2nc(C)sc21 | – | 35.5 µM [rising, single point]
CC(C)(CC(=O)OCC(=O)Nc1ccccc1F)CC1=NS(=O)(=O)c2ccccc2N1 | 2 µM [rising, partial curve, poor fit] | –
Cc1ccc(C(=O)Nc2ccc(S(=O)(=O)N3CCc4ccccc43)cc2)o1 | 14.1 µM [rising, partial curve] | 17.8 µM [rising, single point]
NC(N)=N/N=C/c1ccc(OCc2ccc(Cl)cc2)cc1 | – | 10 µM [rising, single point]
CCN(CC)S(=O)(=O)c1cc(-c2nnc(-c3ccc(Br)cc3)o2)ccc1Cl | 7.08 µM [rising, single point] | 2.82 µM [rising, full curve]
Cc1cccc(C)c1Nc1nnc(SCC(=O)Nc2cc(S(=O)(=O)N3CCCCC3)ccc2Cl)s1 | – | 35.5 µM [rising, single point]
CC(=O)c1c(C)[nH]c(C(=O)OC(C)C(=O)Nc2cc(S(=O)(=O)N3CCCCC3)ccc2Cl)c1C (stereo not given) | – | 5.62 µM [rising, single point]
CC(C)(C)S(=O)(=O)c1ccsc1C(=O)O | – | 35.5 µM [rising, single point]
COc1ccc(C(=O)NCCn2ccc3ccccc32)c(OC)c1 | 11.2 µM [rising, partial curve, poor fit] | 7.94 µM [rising, partial curve]
Cc1ccc(NC(=O)Nc2nnc(Cc3ccc([N+](=O)[O-])cc3)s2)cc1C | – | 1.58 µM [rising, partial curve, poor fit]

From PubChem BioAssay AID1487 (National Center for Advancing Translational Sciences (NCATS), 2009)
